Measured values taken from US20240285628A1.
Where two headings read alike, the source gives them in different places. Structures were worked out from names or drawings and are uncertain.

Sequences of proteins named here, by UniProt entry; tags and fusion partners are left off.
UniProt P30874, whole entry: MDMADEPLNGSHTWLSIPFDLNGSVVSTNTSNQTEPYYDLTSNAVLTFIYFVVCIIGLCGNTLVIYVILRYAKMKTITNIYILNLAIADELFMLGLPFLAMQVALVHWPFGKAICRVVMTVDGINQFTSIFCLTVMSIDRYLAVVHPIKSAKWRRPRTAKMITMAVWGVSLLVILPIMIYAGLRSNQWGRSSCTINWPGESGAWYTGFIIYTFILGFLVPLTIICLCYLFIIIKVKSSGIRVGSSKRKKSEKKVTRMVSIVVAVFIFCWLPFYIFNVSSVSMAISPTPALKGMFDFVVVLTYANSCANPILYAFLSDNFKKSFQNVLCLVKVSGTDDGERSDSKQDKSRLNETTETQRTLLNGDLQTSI
UniProt P30968, whole entry: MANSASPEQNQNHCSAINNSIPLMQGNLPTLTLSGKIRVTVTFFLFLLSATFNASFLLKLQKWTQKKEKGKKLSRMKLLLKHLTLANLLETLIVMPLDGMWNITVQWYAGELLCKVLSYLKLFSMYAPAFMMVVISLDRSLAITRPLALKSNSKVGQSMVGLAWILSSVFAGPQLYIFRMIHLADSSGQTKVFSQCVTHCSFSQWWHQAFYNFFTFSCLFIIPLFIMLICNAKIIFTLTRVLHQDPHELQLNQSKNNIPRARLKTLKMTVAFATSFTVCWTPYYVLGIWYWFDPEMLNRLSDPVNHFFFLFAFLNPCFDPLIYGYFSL

Legend:
[1] = biological target: human somatostatin receptor subtype 2 (Homo sapiens, UniProt P30874); assay: Functional cAMP assay for SSTR2 agonists; details: Peptide GPCR SST2
[2] = biological target: human GnRH receptor (Homo sapiens, UniProt P30968); assay: Functional IP-One assay for GnRHR; details: read-out: Conjugate Activity (EC50), Peptide GPCR GnRH, FlpIn T-Rex 293 cells expressing human GnRH receptor
[3] = read-out: Conjugate Activity (EC50), CHO-K1 cells expressing human SSTR2, cAMP
[4] = read-out: NP Ligand activity EC50, value of the unconjugated NP ligand of the conjugate shown in the row, not of the conjugate itself

`CCC(C)C(C(CC(=O)N1CCCC1C(OC)C(C)C(=O)NC(C)C(O)c1ccccc1)OC)N(C)C(=O)C(NC(=O)C(C(C)C)N(C)C(=O)OCc1ccc(NC(=O)C(CCCNC(N)=O)NC(=O)C(NC(=O)CCCC(=O)NCCOCCOCCOCCOCCOCCOCCOCCOCCC(=O)N2CCN(c3ncc(-c4cc(C)cc(F)c4)c(N4CCC(N)CC4)c3-c3nc4ccc(Cl)cc4[nH]3)CC2)C(C)C)cc1)C(C)C` (centres unmarked) showed an EC50 [1, 3] of 1.5 nM and an EC50 [1, 4] of 8.7 nM.
`COc1cc2cc(c1Cl)N(C)C(=O)CC(OC(=O)C(C)N(C)C(=O)CCC(C)(C)SSCCCC(=O)NCCOCCOCCOCCOCCOCCOCCOCCOCCC(=O)N1CCN(c3ncc(-c4cc(C)cc(F)c4)c(N4CCC(N)CC4)c3-c3nc4ccc(Cl)cc4[nH]3)CC1)C1(C)OC1C(C)C1CC(O)(NC(=O)O1)C(OC)C=CC=C(C)C2` (centres unmarked) was tested, and the EC50 [1, 3] was 0.74 nM and the EC50 [1, 4] was 8.7 nM.
`CC[C@H](C)[C@@H]([C@@H](CC(=O)N1CCC[C@H]1[C@H](OC)[C@@H](C)C(=O)NCCc1ccccn1)OC)N(C)C(=O)[C@@H](NC(=O)[C@H](C(C)C)N(C)CCOCCOCCOCCNc1nc(OC)c(NC(=O)c2ccc(Oc3cc4c(cc3C)CCC4(C)C)o2)c(OC)n1)C(C)C` was tested, and the EC50 [2] was 4.1 nM.
